Data reported in patent US6184422A, “Cyclohexanediol derivatives” (priority 1998, dated 2001).

Key:
[1] = Calcium Liability (Tolerance Test in Mice); conditions: Table I; relative to calcitriol; HTDsc mouse and VDR activation
From the text: 1. Calcium Liability (Tolerance Test in Mice)
This test gives a global picture of calcemic liability. Profound changes in calcium homeostasis strongly affect the weight development of the animals. This parameter was used as a primary test for tolerance. […] Body weight was registered just before and at the end of a 5 day treatment period.

[2] = tested on: epidermal thickening (acanthosis) in hairless mice; assay: The Mouse Model: epidermal thickening (acanthosis) in hairless mice; conditions: Table II, oral, relative to calcitriol
[3] = tested on: epidermal proliferation in minipigs; conditions: oral, TI relative to calcitriol
Method: Orally administered vitamin D analogs can lead to epidermal proliferation in minipigs. This skin effect is considered as indicative for an antipsoriatic potential of vitamin D analogs. […] The pigs were daily observed as to adverse effects such as behavior, mobility, stool. At day seven bromodeoxyuridine (4 mg/kg) was injected intravenously into the treated pigs and 2 hours later skin biopsies (6 mm diameter) and blood were taken for analysis. The skin biopsies were fixed in formalin, and paraffin sections were prepared using standard procedures. Using standard immuno-histochemical techniques, cells in the S-phase (DNA synthesis phase) were labelled by the binding of a specific monoclonal antibody against the thymidine analogue bromodeoxyuridine. The number of labelled epidermal cells per unit of length along the surface was taken as a measure of epidermal proliferative activity (labelings index LI). Clinical chemistry was performed using Cobas Mira.
*The effective dose is the dose that increases the normal LI at least 50%

Row | Compound | TI shift (ratio HTD/VDR of test compound divided by ratio HTD/VDR of calcitriol) [1] | TI shift (ratio HTD/ED50 for test compound divided by ratio HTD/ED50 for calcitriol) [2] | Rel. shift [3]
1 | CC(C)(C/C=C\C(O)(C(F)(F)F)C(F)(F)F)CCC/C=C/C=C1C[C@@H](O)C[C@H](O)C1 [A, (1R,3R)-5-[(2E,9Z)-12,12,12-trifluoro-11-hydroxy-7,7-dimethyl-11-trifluoromethyl-dodeca-2,9-dienylidene)-cyclohexane-1,3-diol] | 78 | 67 | > 350
2 | C=C1/C(=C\C=C\CCCC(C)(C)C/C=C\C(O)(C(F)(F)F)C(F)(F)F)C[C@@H](O)C[C@@H]1O [B, (Z)-(1R,3S)-4-methylene-5-[(2E,9Z)-12,12,12-trifluoro-11-hydroxy-7,7-dimethyl-11-trifluoromethyl-dodeca-2,9-dienylidene]-cyclohexane-1,3-diol] | 333 | 67 | > 14
3 | C=C1/C(=C\C=C\CCCC(C)(C)C/C=C/C(O)(C(F)(F)F)C(F)(F)F)C[C@@H](O)C[C@@H]1O [C, (Z)-(1R,3S)-5-((2E,9E)-12,12,12-trifluoro-11-trifluoromethyl-11-hydroxy-7,7-dimethyl-dodec-2,9-dienylidene)-4-methylene-cyclohexane-1,3-diol] | 278 | 67 | 
4 | C=C1/C(=C\C=C2/CCC[C@]3(C)[C@@H]([C@H](C)CCCC(C)(C)O)CC[C@@H]23)C[C@@H](O)C[C@@H]1O [Calcitriol, reference compound] |  |  | 1
5 | CC(C)(CCC/C=C/C=C1C[C@@H](O)C[C@H](O)C1)CCCC(O)(C(F)(F)F)C(F)(F)F [Compound E, (1R,3R)-5-[(2E)-12,12,12-trifluoro-11-hydroxy-7,7-dimethyl-11-trifluoromethyl-dodec-2-enylidene)-cyclohexane-1,3-diol] | 83 | 100 | 
6 | CC(C)(C/C=C/C(O)(C(F)(F)F)C(F)(F)F)CCC/C=C/C=C1C[C@@H](O)C[C@H](O)C1 [D, (1R,3R)-5-[(2E,9E)-12,12,12-trifluoro-11-trifluoromethyl-11-hydroxy-7,7-dimethyl-dodeca-2,9-dienylidene]-cyclohexane-1,3-diol] | 100 | 50 | 
7 | C=C1/C(=C\C=C\CCCC(C)(C)CCCC(O)(C(F)(F)F)C(F)(F)F)C[C@@H](O)C[C@@H]1O [F, (Z)-(1R,3S)-5-[(2E)-12,12,12-trifluoro-11-hydroxy-7,7-dimethyl-11-trifluoromethyl-dodec-2-enylidene]-4-methylene-cyclohexane-1,3-diol] | 111 | 200 | > 35
8 | C=C1/C(=C\C=C\CCCC(C)(C)CCCC(C)(C)O)C[C@@H](O)C[C@@H]1O [G, (Z)-(1R,3S)-5-[(E)-11-hydroxy-7,7,11-trimethyl-dodec-2-enylidene]-4-methylene-cyclohexane-1,3-diol] | 250 | 167 | 
9 | CC(C)(O)CCCC(C)(C)CCC/C=C/C=C1C[C@@H](O)C[C@H](O)C1 [H, (2E)-(1R,3R)-5-(11-hydroxy-7,7,11-trimethyl-dodeca-2-enylidene)-cyclohexane-1,3-diol] | 100 |  | 
10 | CC(C)(CC#CC(O)(C(F)(F)F)C(F)(F)F)CCC/C=C/C=C1C[C@@H](O)C[C@H](O)C1 [I, (E)-(1R,3R)-5-[12,12,12-trifluoro-11-hydroxy-7,7-dimethyl-11-trifluoromethyl-dodec-2-en-9-ynylidene]-cyclohexane-1,3-diol] | 144 | 63 | > 42
11 | C=C1/C(=C\C=C\CCCC(C)(C)CC#CC(O)(C(F)(F)F)C(F)(F)F)C[C@@H](O)C[C@@H]1O [J, (Z)-(1R,3S)-4-methylene-5-[(E)-12,12,12-trifluoro-11-hydroxy-7,7-dimethyl-11-trifluoromethyl-dodec-2-en-9-ynylidene]-cyclohexane-1,3-diol] | 361 | 50 | > 21
12 | CC(C)(O)C#CCC(C)(C)CCC/C=C/C=C1C[C@@H](O)C[C@H](O)C1 [K, (10E)-(3R,5R)-12-(3,5-dihydroxy-cyclohexylidene)-6,6-dimethyl-2-methyl-dodec-10-en-3-yn-2-ol] | > 127 |  | 
